Source: publication PMC11170894
Where a chain is given by its changes, count along the chain named. Names may count otherwise. These are yes or no findings as the source states them, for the method shown. Some entries that bind do so weakly or less than the wild type. Sequences can lack the tags named with a protein. One block for each binder: values may come before it.

Key:
[1] = biological target: T1, Flag-TBK1 E232Q mutant (human) (UniProt Q9UHD2); assay: non-reducing SDS-PAGE; TBK1 dimerization examined by non-reducing SDS-PAGE and immunoblot of lysates of HEK293T cells expressing Flag-TBK1 wild-type or mutants
T1 sequence: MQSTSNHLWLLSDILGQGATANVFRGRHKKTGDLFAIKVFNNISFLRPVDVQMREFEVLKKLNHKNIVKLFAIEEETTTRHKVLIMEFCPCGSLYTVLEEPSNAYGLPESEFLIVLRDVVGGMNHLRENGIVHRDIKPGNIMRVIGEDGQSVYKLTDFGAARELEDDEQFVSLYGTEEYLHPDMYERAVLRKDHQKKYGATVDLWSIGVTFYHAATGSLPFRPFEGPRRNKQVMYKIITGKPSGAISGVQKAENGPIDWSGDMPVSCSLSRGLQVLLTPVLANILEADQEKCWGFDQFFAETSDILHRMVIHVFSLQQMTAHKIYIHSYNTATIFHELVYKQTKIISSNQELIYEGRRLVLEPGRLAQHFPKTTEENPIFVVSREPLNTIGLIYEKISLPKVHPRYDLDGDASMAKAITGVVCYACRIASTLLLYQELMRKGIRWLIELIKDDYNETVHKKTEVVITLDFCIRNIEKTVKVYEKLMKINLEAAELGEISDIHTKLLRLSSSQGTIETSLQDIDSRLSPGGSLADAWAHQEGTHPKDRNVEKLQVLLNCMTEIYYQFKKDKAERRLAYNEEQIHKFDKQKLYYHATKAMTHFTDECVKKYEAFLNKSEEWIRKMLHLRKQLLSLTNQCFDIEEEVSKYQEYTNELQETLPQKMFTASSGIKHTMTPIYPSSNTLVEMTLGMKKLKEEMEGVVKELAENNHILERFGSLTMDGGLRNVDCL

[2] = biological target: T2, Flag-TBK1 E696G mutant (human) (UniProt Q9UHD2); assay: as above
T2 sequence: T1 sequence with Q232E, E696G

binding [1]: binds
B1: Flag-TBK1 E232Q mutant (enzyme, UniProt Q9UHD2 1-729)
chain: T1 sequence

binding [2]: binds
B2: Flag-TBK1 E696G mutant (enzyme, UniProt Q9UHD2 1-729)
chain: T1 sequence with Q232E, E696G
